Cleaved PARP after 72 h of treatment

Source: doi:10.1371/journal.pone.0140310, primary screening data, rounded.

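Human melanoma cell lines in 1,536-well plates were treated with a pair of drugs for 72 h, then fixed, stained and imaged. Each value is the cleaved-PARP-positive fraction of nuclei relative to DMSO-treated wells, in %, so that 100 equals the control and higher values mean more apoptosis. Every drug was used at one fixed concentration, the higher of two screened. No replicate spread is given; individual values may be noisy. Basal and induced levels differ widely between cell lines.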 This is part of the screen, not chosen by result. A dash means that no value is listed here.

First drug in all entries: TCS401, 8.33 µM, O=C(O)C(=O)Nc1sc2c(c1C(=O)O)CCNC2

Partner | WM1716 | A2058 | UACC-257 | RVH-421 | WM115 | LB2518-MEL | WM3619 | RPMI-7951 | MZ2-MEL | A375
COc1cc2ncnc(Nc3ccc(Oc4ccccc4)cc3)c2cc1OC at 10 µM | 118 | 92.6 | 42.4 | 185 | 113 | 39.0 | 115 | 40.9 | 29.1 | 10.2
CO[C@H]1C[C@@H]2CC[C@@H](C)[C@@](O)(O2)C(=O)C(=O)N2CCCC[C@H]2C(=O)O[C@H]([C@H](C)C[C@@H]2CC[C@@H](OCCO)[C@H](OC)C2)CC(=O)[C@H](C)/C=C(\C)[C@@H](O)[C@@H](OC)C(=O)[C@H](C)C[C@H](C)/C=C/C=C/C=C/1C at 0.1 µM | 54.4 | 107 | 34.5 | 26.0 | 68.9 | 72.5 | 137 | 178 | 266 | 95.0
O=C1NC(=O)/C(=C/c2ccc(-c3ccc(F)cc3O)o2)S1 at 5 µM | 58.1 | 91.1 | 15.6 | 43.3 | 113 | 62.7 | 105 | 65.0 | 225 | 60.8
O=C(Oc1ccc([N+](=O)[O-])cc1)N1CCC(C(O)(c2ccc3c(c2)OCO3)c2ccc3c(c2)OCO3)CC1 at 5 µM | 44.1 | 113 | 28.2 | 75.3 | 180 | 97.0 | 137 | 126 | 28.5 | 27.7
N#Cc1c(O)c2c(-c3ccc(-c4ccccc4O)cc3)csc2[nH]c1=O at 10 µM | 19.9 | 58.3 | 33.2 | 127 | 146 | 113 | 117 | 55.5 | 104 | 17.4
Cc1cc([N+](=O)[O-])ccc1NS(=O)(=O)c1cc(Cl)ccc1Cl at 5 µM | 43.2 | 128 | 300 | 56.2 | 42.2 | 77.9 | 165 | 51.7 | 116 | 76.8
CCCCCCCCCCCC1=C(O)C(=O)C=C(O)C1=O at 6 µM | 67.9 | 60.0 | 52.9 | 233 | 241 | 74.3 | 114 | 114 | 111 | 32.3
CS(=O)(=O)c1ccc(C(=O)Nc2ccc(Cl)c(-c3ccccn3)c2)c(Cl)c1 at 5 µM | 96.3 | 117 | 61.4 | 123 | 42.3 | 69.8 | 97.9 | 124 | 117 | 24.3
NCC(=O)Nc1ccc(-n2nc(C(F)(F)F)cc2-c2ccc3c(ccc4ccccc43)c2)cc1 at 5 µM | 89.8 | 97.8 | 75.7 | 63.5 | 118 | 72.9 | 196 | 69.2 | 187 | 229
Oc1cc(-c2nc(-c3ccccc3)[nH]c2-c2ccncc2)ccc1Cl at 1 µM | 78.5 | 125 | 62.4 | 119 | 184 | 142 | 114 | 221 | 339 | 105
C#Cc1cccc(Nc2ncnc3cc(OCCOC)c(OCCOC)cc23)c1 at 4 µM | 33.0 | 215 | 15.3 | 94.0 | 121 | 86.1 | 140 | 67.1 | 140 | 52.4
Nc1cccc2c1CN(C1CCC(=O)NC1=O)C2=O (stereo not shown) at 5 µM | 115 | 70.8 | 25.5 | 57.8 | 108 | 27.6 | 98.6 | 123 | 50.7 | 41.9
Cc1nc(Nc2ncc(C(=O)Nc3c(C)cccc3Cl)s2)cc(N2CCN(CCO)CC2)n1 at 0.02 µM | 150 | 354 | 51.6 | 128 | 141 | 76.4 | 153 | 174 | 369 | 89.9
Cn1nnc2c(C(N)=O)ncn2c1=O at 10 µM | 428 | 384 | 13.8 | 68.7 | 59.8 | 78.3 | 113 | 59.1 | 33.8 | 32.4
Cc1cc(Nc2cc(N3CCN(C)CC3)nc(/C=C/c3ccccc3)n2)n[nH]1 at 0.2 µM | 34.1 | 123 | 67.9 | 109 | 135 | 125 | 94.5 | 35.0 | 97.9 | 42.0
NC1(c2ccc(-c3nc4ccn5c(=O)[nH]nc5c4cc3-c3ccccc3)cc2)CCC1 at 2 µM | 149 | 95.5 | 68.4 | 121 | 69.2 | 82.5 | 122 | 122 | 200 | 58.6
COCC[n+]1c2c(n(Cc3cnccn3)c1C)C(=O)c1ccccc1C2=O at 0.002 µM | 209 | 1110 | 76.4 | 89.1 | 140 | 336 | 123 | 381 | 700 | 108
O=c1cc(-c2cccc3c2Sc2ccccc2S3)oc(N2CCOCC2)c1 at 5 µM | 105 | 80.4 | 11.8 | 140 | 89.7 | 63.9 | 86.4 | 135 | 274 | 11.1
Nc1ncn([C@H]2C[C@H](O)[C@@H](CO)O2)c(=O)n1 at 0.5 µM | 175 | 178 | 31.0 | 315 | 137 | - | 108 | 356 | - | 37.9
COc1ccc(C2=N[C@@H](c3ccc(Cl)cc3)[C@@H](c3ccc(Cl)cc3)N2C(=O)N2CCNC(=O)C2)c(OC(C)C)c1 at 0.5 µM | 129 | 96.1 | 34.7 | 621 | 361 | 66.1 | 114 | 65.0 | 55.9 | 52.1
Nc1nc(F)nc2c1ncn2[C@@H]1O[C@H](CO)[C@@H](O)[C@@H]1O at 1 µM | 37.1 | 67.7 | 772 | 80.3 | 56.5 | 111 | 116 | 125 | 132 | 154

Once more, the final 2:

Partner	WM1716	A2058	UACC-257	RVH-421	WM115	LB2518-MEL	WM3619	RPMI-7951	MZ2-MEL	A375
COc1ccc(C2=N[C@@H](c3ccc(Cl)cc3)[C@@H](c3ccc(Cl)cc3)N2C(=O)N2CCNC(=O)C2)c(OC(C)C)c1 at 0.5 µM	129	96.1	34.7	621	361	66.1	114	65.0	55.9	52.1
Nc1nc(F)nc2c1ncn2[C@@H]1O[C@H](CO)[C@@H](O)[C@@H]1O at 1 µM	37.1	67.7	772	80.3	56.5	111	116	125	132	154